# Source: the supplement of paper PMC7666118
# Chains of the proteins cited; added tags and fusions are not shown. Lines headed by an entry give the natural chain unless they say otherwise; changes in a name come on top.
# UniProt P48147: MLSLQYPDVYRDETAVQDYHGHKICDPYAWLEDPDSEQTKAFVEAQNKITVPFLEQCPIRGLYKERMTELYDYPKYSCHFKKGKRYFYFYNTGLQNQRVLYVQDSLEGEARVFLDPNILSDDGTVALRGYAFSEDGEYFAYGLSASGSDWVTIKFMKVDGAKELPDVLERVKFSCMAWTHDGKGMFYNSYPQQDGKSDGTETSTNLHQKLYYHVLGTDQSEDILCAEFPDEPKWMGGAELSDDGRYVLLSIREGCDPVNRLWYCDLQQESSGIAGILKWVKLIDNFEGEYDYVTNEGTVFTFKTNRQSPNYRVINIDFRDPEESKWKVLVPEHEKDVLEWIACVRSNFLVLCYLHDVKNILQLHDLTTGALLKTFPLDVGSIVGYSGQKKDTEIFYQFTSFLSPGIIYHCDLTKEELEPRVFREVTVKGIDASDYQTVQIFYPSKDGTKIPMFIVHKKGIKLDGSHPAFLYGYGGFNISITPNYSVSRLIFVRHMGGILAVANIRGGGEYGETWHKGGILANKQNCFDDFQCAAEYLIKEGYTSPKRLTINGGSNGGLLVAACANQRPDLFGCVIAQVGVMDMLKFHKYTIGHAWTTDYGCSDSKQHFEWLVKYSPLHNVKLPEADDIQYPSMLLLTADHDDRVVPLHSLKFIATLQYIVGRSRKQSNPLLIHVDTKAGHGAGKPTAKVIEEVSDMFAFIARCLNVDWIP
# UniProt Q9UPP1: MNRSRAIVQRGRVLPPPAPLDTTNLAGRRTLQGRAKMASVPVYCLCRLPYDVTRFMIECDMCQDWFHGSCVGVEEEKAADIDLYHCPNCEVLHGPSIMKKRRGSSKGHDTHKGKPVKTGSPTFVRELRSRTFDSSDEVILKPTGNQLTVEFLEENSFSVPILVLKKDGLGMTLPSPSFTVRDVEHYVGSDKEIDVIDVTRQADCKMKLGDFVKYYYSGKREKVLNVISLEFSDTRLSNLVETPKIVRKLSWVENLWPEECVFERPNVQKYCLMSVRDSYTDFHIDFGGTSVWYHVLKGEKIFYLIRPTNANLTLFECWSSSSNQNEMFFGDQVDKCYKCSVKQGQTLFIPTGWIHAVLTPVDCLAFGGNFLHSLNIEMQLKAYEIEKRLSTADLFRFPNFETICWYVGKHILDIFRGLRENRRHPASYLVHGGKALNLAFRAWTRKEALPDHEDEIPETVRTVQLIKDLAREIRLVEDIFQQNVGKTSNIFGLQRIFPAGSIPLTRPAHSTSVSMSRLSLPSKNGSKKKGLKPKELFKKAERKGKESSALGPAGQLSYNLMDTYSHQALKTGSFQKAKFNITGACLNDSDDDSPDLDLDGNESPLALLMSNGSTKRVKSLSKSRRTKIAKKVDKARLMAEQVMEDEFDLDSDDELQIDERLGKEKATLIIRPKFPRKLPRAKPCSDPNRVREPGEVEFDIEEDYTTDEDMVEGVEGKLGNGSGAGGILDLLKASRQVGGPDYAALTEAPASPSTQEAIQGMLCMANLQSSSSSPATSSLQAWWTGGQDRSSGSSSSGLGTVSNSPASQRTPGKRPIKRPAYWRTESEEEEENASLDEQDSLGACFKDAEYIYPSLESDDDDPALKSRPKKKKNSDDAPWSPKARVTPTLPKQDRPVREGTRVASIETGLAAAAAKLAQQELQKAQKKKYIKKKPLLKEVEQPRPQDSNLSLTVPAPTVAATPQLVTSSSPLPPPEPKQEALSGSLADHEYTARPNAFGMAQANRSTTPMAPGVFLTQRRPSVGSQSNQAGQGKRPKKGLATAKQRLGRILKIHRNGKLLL
# UniProt P47712: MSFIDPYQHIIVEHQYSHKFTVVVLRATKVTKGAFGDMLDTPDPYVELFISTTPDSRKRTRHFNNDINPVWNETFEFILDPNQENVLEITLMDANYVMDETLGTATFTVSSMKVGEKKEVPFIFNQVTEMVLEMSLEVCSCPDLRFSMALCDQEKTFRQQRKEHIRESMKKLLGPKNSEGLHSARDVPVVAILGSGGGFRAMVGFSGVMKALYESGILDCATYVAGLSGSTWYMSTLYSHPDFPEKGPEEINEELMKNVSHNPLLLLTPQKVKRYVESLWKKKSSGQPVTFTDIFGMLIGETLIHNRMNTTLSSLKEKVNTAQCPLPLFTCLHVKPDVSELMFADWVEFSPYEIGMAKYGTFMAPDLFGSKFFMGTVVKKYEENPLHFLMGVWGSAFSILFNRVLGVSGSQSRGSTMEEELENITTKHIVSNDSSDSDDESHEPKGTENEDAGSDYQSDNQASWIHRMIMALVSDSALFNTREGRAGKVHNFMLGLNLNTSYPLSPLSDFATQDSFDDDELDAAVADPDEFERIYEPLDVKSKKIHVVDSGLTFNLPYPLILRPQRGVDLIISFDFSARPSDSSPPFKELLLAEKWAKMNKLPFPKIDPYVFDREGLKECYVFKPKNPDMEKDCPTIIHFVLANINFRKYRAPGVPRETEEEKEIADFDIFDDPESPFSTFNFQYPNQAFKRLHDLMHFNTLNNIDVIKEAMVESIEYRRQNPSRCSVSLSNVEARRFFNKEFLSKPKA
# UniProt Q15435: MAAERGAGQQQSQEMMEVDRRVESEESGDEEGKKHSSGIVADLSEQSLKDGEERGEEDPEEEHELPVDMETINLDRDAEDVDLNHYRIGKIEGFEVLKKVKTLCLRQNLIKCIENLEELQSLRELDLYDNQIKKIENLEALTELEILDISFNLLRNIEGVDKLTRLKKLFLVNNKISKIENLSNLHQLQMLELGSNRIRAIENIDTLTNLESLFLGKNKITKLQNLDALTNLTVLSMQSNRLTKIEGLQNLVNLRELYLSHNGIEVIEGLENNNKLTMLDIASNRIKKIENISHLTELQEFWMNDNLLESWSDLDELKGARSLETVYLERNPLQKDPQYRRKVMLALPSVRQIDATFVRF
# UniProt A6NDG6: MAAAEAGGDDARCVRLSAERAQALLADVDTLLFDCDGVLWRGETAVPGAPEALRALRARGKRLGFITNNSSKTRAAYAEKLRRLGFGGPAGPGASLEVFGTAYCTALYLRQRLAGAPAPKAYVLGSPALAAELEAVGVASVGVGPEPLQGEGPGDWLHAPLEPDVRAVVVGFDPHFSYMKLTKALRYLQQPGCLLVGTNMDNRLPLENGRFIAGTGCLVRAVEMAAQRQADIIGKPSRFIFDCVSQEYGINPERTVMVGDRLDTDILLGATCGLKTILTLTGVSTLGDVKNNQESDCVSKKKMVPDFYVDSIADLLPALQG
# UniProt O94806: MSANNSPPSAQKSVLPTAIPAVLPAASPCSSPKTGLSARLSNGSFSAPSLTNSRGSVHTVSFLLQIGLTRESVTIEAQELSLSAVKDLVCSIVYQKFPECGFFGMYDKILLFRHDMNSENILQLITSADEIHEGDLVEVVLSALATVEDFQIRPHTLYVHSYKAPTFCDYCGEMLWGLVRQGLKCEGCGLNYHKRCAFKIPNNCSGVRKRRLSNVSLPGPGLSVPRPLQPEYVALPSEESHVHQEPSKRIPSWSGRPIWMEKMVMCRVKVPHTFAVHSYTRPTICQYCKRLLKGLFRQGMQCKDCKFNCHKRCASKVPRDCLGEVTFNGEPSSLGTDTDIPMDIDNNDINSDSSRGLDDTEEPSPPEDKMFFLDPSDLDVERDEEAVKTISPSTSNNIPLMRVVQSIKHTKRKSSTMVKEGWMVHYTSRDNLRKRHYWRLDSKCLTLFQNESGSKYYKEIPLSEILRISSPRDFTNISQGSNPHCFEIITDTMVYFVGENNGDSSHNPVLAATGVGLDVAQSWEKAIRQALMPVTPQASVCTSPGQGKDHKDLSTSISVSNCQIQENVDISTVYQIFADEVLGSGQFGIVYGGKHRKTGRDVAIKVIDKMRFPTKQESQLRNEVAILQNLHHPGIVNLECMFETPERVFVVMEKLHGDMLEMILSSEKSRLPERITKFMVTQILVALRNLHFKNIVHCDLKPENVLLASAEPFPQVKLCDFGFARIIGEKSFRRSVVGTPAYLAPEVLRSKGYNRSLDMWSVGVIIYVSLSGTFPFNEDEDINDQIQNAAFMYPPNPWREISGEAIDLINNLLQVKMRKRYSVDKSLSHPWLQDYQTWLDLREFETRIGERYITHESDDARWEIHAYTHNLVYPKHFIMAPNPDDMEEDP
# UniProt Q9NW08: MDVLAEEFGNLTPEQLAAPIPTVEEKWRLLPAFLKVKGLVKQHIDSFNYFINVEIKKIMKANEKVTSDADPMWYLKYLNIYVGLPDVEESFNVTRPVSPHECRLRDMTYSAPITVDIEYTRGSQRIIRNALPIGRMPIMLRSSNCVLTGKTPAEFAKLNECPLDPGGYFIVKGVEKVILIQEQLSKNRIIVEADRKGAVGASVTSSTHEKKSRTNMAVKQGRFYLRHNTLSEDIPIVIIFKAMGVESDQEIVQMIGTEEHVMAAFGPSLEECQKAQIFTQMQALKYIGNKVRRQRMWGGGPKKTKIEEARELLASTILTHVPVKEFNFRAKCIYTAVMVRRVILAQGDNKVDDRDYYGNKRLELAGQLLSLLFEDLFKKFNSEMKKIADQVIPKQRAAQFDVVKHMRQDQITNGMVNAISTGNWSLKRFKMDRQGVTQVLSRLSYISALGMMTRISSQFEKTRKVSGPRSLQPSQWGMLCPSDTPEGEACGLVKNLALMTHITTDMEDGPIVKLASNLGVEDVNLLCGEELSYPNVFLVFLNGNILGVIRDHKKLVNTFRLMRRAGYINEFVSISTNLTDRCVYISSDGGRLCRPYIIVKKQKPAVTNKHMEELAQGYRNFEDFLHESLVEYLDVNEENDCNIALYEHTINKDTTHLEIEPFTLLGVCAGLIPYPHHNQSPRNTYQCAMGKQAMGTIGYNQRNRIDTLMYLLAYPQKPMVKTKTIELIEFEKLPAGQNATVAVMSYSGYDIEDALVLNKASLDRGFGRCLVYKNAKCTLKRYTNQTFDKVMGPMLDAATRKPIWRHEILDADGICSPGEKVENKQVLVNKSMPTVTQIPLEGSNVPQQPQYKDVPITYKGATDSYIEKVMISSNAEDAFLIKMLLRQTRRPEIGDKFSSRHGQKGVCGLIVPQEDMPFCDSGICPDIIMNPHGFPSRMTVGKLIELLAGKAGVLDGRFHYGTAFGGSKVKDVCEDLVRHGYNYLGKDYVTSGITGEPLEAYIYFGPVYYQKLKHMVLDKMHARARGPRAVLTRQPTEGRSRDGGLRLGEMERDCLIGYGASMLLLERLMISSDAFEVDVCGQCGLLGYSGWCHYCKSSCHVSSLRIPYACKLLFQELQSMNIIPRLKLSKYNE
# UniProt Q9ULR3: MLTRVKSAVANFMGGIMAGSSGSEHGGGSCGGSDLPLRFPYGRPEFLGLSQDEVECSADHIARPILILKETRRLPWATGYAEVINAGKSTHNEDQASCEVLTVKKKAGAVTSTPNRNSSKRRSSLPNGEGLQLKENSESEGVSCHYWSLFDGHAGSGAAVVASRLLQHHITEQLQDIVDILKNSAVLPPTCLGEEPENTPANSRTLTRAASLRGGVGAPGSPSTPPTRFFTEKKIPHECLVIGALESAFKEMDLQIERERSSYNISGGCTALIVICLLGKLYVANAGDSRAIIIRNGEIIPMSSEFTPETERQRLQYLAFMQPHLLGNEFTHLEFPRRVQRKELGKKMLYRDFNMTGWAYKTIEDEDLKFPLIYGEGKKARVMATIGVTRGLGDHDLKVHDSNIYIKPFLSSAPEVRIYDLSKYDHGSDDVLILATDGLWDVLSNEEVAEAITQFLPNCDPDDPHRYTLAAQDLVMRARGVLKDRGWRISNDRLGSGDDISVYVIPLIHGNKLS
# UniProt Q9H237: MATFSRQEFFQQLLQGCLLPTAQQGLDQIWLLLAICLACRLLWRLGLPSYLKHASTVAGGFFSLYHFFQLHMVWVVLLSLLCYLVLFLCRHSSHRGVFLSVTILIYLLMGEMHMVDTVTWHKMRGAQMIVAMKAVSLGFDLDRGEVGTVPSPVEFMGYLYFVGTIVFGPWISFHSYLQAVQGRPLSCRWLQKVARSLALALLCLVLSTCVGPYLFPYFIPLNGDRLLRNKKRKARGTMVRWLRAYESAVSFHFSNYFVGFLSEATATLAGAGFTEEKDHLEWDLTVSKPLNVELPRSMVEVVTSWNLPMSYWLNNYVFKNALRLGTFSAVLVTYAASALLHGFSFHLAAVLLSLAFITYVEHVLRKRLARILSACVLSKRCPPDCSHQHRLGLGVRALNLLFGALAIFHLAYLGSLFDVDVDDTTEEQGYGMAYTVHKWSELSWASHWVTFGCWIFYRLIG
# This is one part of the list.
# Compound: COc1ccc(Cn2ccc3ccc(C(=O)NO)cc32)cc1
# Test: dose-dependent thermal stabilisation call (2D-TPP, DLPTP, 10% FDR) (binary (1 = stabilised)); higher = stabilised by the compound
# Conditions: system: HL-60 intact cells; concentration range 0.04-10 µM
row,Target,dose-dependent thermal stabilisation call
1,PREP (UniProt P48147),inactive: 0
2,PHF8 (UniProt Q9UPP1),inactive: 0
3,PLA2G4A (UniProt P47712),inactive: 0
4,PPP1R7 (UniProt Q15435),inactive: 0
5,PGP (UniProt A6NDG6),inactive: 0
6,POFUT1 (UniProt Q9H488),inactive: 0
7,PRKD3 (UniProt O94806),inactive: 0
8,POLR3B (UniProt Q9NW08),inactive: 0
9,PPM1H (UniProt Q9ULR3),inactive: 0
10,PORCN (UniProt Q9H237),inactive: 0
